Assay results from PubChem BioAssay AID1487 (National Center for Advancing Translational Sciences (NCATS), 2009).
The other results are listed elsewhere or left out. Shown are side measurements of this screen, not its main read-out; they come without a call. The list favours compounds with an active or inconclusive main result. Words in brackets tell the shape of the fitted curve; partial curves, single points and poor fits give uncertain potencies.

Assay: qHTS Assay for Modulators of Lamin A Splicing
Settings: HeLa LMNA splicing GFP/RFP minigene ratio, 48 h
Outline: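 S3 HeLa stable clones carrying a lamin A-EGFP splicing minigene plus DsRed2 were seeded at 600 cells/well in Opti-MEM with 2% FBS, pin-dosed and incubated 48 h at 37°C. Acumen cytometry (488 nm) gave the GFP/RFP total-intensity ratio.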

[1] = measured here: GFP splicing reporter channel
[2] = measured here: RFP viability control channel

Structure (SMILES) | AC50 [1] | AC50 [2]
Cc1c(Cl)ccc2sc(NC(=O)CN3C(=O)c4ccccc4C3=O)nc12 | 0.0708 µM [falling, full curve] | –
Cc1ccc(NC(=O)COC(=O)c2ccc(Cl)cc2)cc1S(=O)(=O)N(C)C | – | 0.00447 µM [falling, full curve, poor fit]
COc1ccccc1N1CCN(CC(O)COCCOc2ccc(Br)cc2)CC1 (centres undefined) | 8.91 µM [rising, partial curve] | 22.4 µM [rising, partial curve]
COc1cc(-c2nnc(-c3cccs3)o2)cc(OC)c1OC | 35.5 µM [falling, partial curve, poor fit] | –
Cc1oc(-c2ccc(Cl)cc2)nc1CN1CCCC(C(=O)NCCCN2CCOCC2)C1 (centres undefined) | 14.1 µM [rising, single point] | 17.8 µM [rising, single point]
COc1ccccc1Nc1ncccc1C(=O)NCc1ccccc1 | 35.5 µM [rising, single point] | –
CC(=O)c1ccc(N2CCN(C(=O)c3ccc4c(=O)n(-c5ccccc5)c(=O)[nH]c4c3)CC2)cc1 | 14.1 µM [rising, single point] | 22.4 µM [rising, single point]
COc1ccc(CN(C(=O)c2ccco2)c2ccc(C)c(C)c2)cc1 | – | 12.6 µM [falling, single point]
CCCCCn1c(=O)c(Cc2ccccc2)c(O)c2ccccc21 | 14.1 µM [rising, single point] | 25.1 µM [rising, single point]
CCc1ccccc1NC(=O)c1cccc(NC(=O)/C=C/c2ccco2)c1 | – | 11.2 µM [rising, partial curve]
O=C(Nc1ccc2oc(-c3ccccc3)nc2c1)c1ccc2c(c1)OCCO2 | 12.6 µM [rising, single point] | 15.8 µM [rising, single point]
Cc1ccc(Nc2ccc(S(=O)(=O)N3CCOCC3)cc2[N+](=O)[O-])cc1C | 35.5 µM [rising, single point] | –
CCOC(=O)c1cc(-c2ccc(OC)cc2)n(CCC(=O)Nc2cccc(C(C)=O)c2)c1C | 8.91 µM [falling, partial curve] | 14.1 µM [falling, partial curve, poor fit]
CC(=O)c1ccc(OCC(=O)c2cc(C)n(-c3ccc4c(c3)OCO4)c2C)cc1 | – | 1.26 µM [rising, full curve]
Cc1ccc(S(=O)(=O)NC(=O)Nc2cc(C)on2)cc1 | – | 0.00316 µM [rising, full curve, poor fit]
CCOc1ccc(OCC)c(NC(=O)C2CCCN(c3nc(C)cc(C)n3)C2)c1 (centres undefined) | 35.5 µM [rising, single point] | 35.5 µM [rising, single point]
CCCCSC(=S)NC1CCS(=O)(=O)C1 (centres undefined) | 14.1 µM [rising, single point] | 20 µM [rising, single point]

Structure (SMILES) | AC50 [1] | AC50 [2]
Clc1nc(NCCN2CCOCC2)nc(NCc2ccccc2)n1 | – | 0.1 µM [rising, full curve, poor fit]
O=C(Nc1cccc(F)c1)c1ccc(-c2ccccc2Cl)o1 | 11.2 µM [rising, partial curve] | 15.8 µM [rising, partial curve]
COc1ccc(CC(=O)Nc2ccc3nc(C)sc3c2)cc1OC | – | 12.6 µM [rising, single point]
O=C(CCc1nc2cccnc2n1Cc1ccccc1)NCCc1ccc(Cl)cc1 | 5.01 µM [rising, partial curve, poor fit] | 5.62 µM [rising, partial curve, poor fit]
O=C(c1cc(O)c(O)c([N+](=O)[O-])c1)c1ccccc1F | 6.31 µM [falling, full curve, poor fit] | 5.62 µM [falling, full curve, poor fit]
COc1ccccc1OCCOc1ccc(C(=O)c2ccccc2)cc1 | 20 µM [rising, partial curve, poor fit] | 28.2 µM [rising, partial curve]
COc1ccc(N2CCN(Cc3cc(=O)oc4cc(C)c(Cl)c(C)c34)CC2)cc1 | – | 1 µM [rising, partial curve, poor fit]
O=C(Nc1ccccc1)Nc1ccc(S(=O)(=O)N2CCCCC2)cc1 | – | 12.6 µM [rising, partial curve, poor fit]
Nc1ccc(N2CCN(C(=O)c3ccco3)CC2)cc1 | 7.94 µM [falling, partial curve] | –
CCOc1ccc(NC(=O)Cn2cncc2-c2ccc([N+](=O)[O-])cc2)cc1 | 25.1 µM [falling, single point] | 11.2 µM [falling, partial curve]
c1ccc(CNc2ncnc3sc4c(c23)CCC4)nc1 | 11.2 µM [rising, partial curve] | 14.1 µM [rising, single point]
Cc1ccccc1N=Nc1ccc(O)c2ncccc12 | 4.47 µM [rising, partial curve] | 3.98 µM [rising, full curve]
Cc1cccc(C(=O)NC(NC(=S)Nc2ccc(S(N)(=O)=O)cc2)C(Cl)(Cl)Cl)c1 (centres undefined) | – | 14.1 µM [rising, single point]
CCOC(=O)C1=C(C)NC(C)=C(C(=O)OCC)C1C(=O)OCC(=O)N1CCc2ccccc21 | 31.6 µM [rising, single point] | –
CCOC(=O)N1CCN(c2ccc(O)cc2)CC1 | 17.8 µM [falling, single point] | –
CC(C)c1cccc(C(C)C)c1NC(=O)COC(=O)c1ccc(OCC(=O)Nc2cccc(C(F)(F)F)c2)cc1 | – | 0.501 µM [rising, full curve, poor fit]
Oc1c(C(c2ccc(Cl)cc2Cl)N2CCCC2)sc2nc(-c3ccco3)nn12 (centres undefined) | 2.82 µM [falling, partial curve, poor fit] | –

Entries of single compounds from above. Order of values: AC50 [1] | AC50 [2]
CCOC(=O)c1cc(-c2ccc(OC)cc2)n(CCC(=O)Nc2cccc(C(C)=O)c2)c1C is entered as 8.91 µM [falling, partial curve] | 14.1 µM [falling, partial curve, poor fit]
CCCCCn1c(=O)c(Cc2ccccc2)c(O)c2ccccc21 is entered as 14.1 µM [rising, single point] | 25.1 µM [rising, single point]
CCCCSC(=S)NC1CCS(=O)(=O)C1 (centres undefined) is entered as 14.1 µM [rising, single point] | 20 µM [rising, single point]
